Assay results taken from doi:10.1101/303180.
Results are given in words; binding and its absence hold for the method and conditions named. Some binding calls cover weakened binding; strength is not graded here. Tags and fused reporters may be left off the sequences shown.

What was measured:
[1] = target: T1, MBP-Polα^+ (S. pombe) (UniProt P28040); experiment: pull-down
T1 sequence: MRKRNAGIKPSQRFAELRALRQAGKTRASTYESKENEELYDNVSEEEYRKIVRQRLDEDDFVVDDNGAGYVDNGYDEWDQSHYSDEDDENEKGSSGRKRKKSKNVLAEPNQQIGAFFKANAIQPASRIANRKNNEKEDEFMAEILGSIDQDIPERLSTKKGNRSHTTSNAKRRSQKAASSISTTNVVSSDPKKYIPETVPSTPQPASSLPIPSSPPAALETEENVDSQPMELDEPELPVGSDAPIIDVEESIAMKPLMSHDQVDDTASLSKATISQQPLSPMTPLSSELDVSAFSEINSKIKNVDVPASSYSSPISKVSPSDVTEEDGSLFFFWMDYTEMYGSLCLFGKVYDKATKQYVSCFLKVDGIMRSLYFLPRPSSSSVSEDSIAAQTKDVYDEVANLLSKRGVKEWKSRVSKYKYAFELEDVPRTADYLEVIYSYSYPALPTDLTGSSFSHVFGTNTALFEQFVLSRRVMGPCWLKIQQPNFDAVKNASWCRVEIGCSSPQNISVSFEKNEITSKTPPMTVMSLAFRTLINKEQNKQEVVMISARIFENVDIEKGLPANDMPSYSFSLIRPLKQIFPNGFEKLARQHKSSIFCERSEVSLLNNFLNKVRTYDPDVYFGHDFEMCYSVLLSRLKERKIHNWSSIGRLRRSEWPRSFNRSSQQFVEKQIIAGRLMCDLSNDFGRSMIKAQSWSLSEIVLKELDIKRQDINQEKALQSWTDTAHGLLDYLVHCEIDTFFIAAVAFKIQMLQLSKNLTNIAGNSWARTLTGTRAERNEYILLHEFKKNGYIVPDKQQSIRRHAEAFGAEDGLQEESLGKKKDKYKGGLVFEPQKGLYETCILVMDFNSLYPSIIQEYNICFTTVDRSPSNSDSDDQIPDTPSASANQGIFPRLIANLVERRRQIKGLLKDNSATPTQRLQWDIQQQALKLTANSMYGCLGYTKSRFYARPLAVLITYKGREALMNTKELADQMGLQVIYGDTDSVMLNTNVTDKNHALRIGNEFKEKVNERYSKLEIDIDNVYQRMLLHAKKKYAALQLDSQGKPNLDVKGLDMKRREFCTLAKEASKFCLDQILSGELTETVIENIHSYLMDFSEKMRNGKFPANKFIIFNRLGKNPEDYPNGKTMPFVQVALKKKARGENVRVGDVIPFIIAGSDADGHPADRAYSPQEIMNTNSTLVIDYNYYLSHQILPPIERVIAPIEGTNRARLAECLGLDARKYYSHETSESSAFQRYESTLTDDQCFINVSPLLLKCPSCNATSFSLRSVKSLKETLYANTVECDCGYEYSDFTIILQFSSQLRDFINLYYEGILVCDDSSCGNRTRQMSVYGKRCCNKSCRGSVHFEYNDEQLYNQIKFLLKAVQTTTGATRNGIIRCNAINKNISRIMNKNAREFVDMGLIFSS

[2] = target: T2, MBP-Polα^swi7-1 (S. pombe) (UniProt P28040); experiment: pull-down
T2 sequence: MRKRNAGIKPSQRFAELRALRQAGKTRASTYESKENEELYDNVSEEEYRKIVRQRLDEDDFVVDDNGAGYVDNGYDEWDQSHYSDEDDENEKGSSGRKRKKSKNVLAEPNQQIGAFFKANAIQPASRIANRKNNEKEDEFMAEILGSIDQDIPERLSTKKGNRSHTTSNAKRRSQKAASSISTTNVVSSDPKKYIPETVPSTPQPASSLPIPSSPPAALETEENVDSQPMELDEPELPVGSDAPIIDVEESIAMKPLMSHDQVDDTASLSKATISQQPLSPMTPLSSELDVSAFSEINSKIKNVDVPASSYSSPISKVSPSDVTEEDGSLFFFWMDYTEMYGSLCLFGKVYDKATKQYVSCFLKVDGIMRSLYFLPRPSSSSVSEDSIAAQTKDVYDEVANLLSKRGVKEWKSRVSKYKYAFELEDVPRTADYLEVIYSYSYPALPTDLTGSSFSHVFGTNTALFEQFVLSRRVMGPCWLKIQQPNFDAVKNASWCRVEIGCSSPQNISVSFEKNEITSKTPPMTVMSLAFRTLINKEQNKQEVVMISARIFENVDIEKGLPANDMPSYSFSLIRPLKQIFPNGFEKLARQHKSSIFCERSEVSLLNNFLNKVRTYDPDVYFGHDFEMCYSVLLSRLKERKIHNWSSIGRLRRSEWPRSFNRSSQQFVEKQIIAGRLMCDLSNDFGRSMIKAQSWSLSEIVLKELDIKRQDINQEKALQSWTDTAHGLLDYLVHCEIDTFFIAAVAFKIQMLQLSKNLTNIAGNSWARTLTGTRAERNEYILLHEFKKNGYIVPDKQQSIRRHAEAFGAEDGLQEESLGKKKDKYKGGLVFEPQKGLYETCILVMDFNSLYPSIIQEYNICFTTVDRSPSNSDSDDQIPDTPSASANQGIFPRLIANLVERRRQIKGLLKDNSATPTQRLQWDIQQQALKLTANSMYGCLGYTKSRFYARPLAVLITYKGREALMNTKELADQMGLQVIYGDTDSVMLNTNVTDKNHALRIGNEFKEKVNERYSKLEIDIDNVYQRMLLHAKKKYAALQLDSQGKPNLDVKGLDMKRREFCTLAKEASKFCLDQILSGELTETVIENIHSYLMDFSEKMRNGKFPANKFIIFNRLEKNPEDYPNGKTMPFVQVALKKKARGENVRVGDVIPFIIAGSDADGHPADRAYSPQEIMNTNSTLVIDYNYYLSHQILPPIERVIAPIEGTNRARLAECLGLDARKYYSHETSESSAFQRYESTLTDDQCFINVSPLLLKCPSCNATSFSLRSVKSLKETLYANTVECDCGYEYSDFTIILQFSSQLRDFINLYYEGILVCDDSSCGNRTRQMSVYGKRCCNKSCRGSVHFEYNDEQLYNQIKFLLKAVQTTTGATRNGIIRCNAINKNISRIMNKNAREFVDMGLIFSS

B1: GST-Cdc23 (protein, UniProt O42709 1-593)
chain: MHDPFIAEENDLDLEEKRLQRQLNEIQEKKRLRSAQKEASSENAEVIQVPRSPPQQVRVLTVSSPSKLKSPKRLILGIDKGKTGKDVSLGKGPRGPLPKPFHERLAEARNQERKRSDKLKTMKKNRKQSFQRKRNILEDGKSEEEKFPMKCDEIDPYSRQAIVIRYISDEVAKENIGGNQVYLIHQLLKLVRAPKFEAPEVDNYVVMGIVASNSGTRETVNGNKYCMLTLTDLKWQLECFLFGKAFERYWKIQSGTVIALLNPEVLKPKNPDIGRFSLKLDSEYDVLLEIGRSKHLGYCSSRRKSGELCKHWLDKRAGDVCEYHVDLAVQRSMSTRTEFASSMATMHEPRARREKRFRGQGFQGYFAGEKYSAIPNAVAGLYDAEDAVQTERERKERYKKQRAQAEREREILVRLSKRCCASSSSSSNSNNLSTGMSMRTLGHQYLNLQGSGVKNLHDKGNPTALSKDSEIDSSTKKPSVLASFNASIMNPKSSLPSFSNSAILGTNDAASGTPVPQDTTSTKVSPAVVFTSSPRIFSPQSLRKIGFDPTHSADASTTHSTATGLSRSGSLKNIKFRYEFTESDDEDDLEIVP
[1]
  binding: binds
[2]
  binding: binds
